# Values of other authors as cited in paper PMC6195125 (European journal of medicinal chemistry, 2018).
# Test system: mammalian cell
# Details: read-out: Cytotoxicity IC50; cited from earlier work
smiles,measurement,value
"O=C(CCCCCCC(=O)Nc1ccccc1)NO [SAHA, suberoylanilide hydroxamic acid]",IC50,5.17 to 5.5 µM
